Source: PubChem BioAssay AID1224828 (NIAID, 2016)

Screen: 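Find genes required for NF-kappaB p65 moving into the nucleus after LPS in mouse macrophages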 (primary screen)
Cells: mouse RAW264.7 G9 macrophage reporter cells (GFP-p65, Tnf promoter-mCherry)
Reagent: siRNA pool against mouse genes, 100 nM
Timing: 2 days siRNA transfection, then 40 min LPS before fixation
Treatment: LPS (Salmonella minnesota R595) at 10 ng/ml
Detection: 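Microscopy ratio of nuclear to perinuclear-ring GFP-p65 signal, scaled to the plate median; gene score is the average of two replicate robust z-scores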
Scale: p65 translocation robust z-score: higher = more nuclear NF-kappaB p65 after LPS than the plate median; nuclear/cytoplasmic p65 ratio: higher = more nuclear NF-kappaB p65
Hit rule: 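Active if robust z is above 3.3 (negative regulators) or below -1.56, the Tlr4 control median (positive regulators); activity score 50 or more; control wells not called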
Meaning of the calls: active = hit (p65 shift raised or lowered); inactive = no clear change
In all, the deposit lists about 17,000 reagents; this is a random part of them. Of all reagents, 762 (4.5%) are marked active. 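Active calls include both raised and lowered p65 entry, mostly lowered; wells with fewer than 50 cells lack a z-score.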 Raw values vary from plate to plate and are shown uncorrected. Entries without a mark were called inactive. Reagent sequences are not shown.

The opening 5 records, to show the layout:
no.	gene	p65 translocation robust z-score	nuclear/cytoplasmic p65 ratio, rep 1	nuclear/cytoplasmic p65 ratio, rep 2	low cell count flag
1	Arhgap26	0.74	1.74	1.71	enough cells to score
2	Vmn1r178	2.93	1.77	1.3	enough cells to score
3	Enah	0.17	1.59	1.51	enough cells to score
4	Fancc	1.42	1.67	1.54	enough cells to score
5	Thap2	-1.11	1.26	1.41	enough cells to score

Results, from the start:
no.	gene	p65 translocation robust z-score	nuclear/cytoplasmic p65 ratio, rep 1	nuclear/cytoplasmic p65 ratio, rep 2	low cell count flag
1	Arhgap26	0.74	1.74	1.71	enough cells to score
2	Vmn1r178	2.93	1.77	1.3	enough cells to score
3	Enah	0.17	1.59	1.51	enough cells to score
4	Fancc	1.42	1.67	1.54	enough cells to score
5	Thap2	-1.11	1.26	1.41	enough cells to score
6	Serpina7	-0.29	1.63	1.52	enough cells to score
7	Rhno1	-0.32	1.33	1.42	enough cells to score
8	Klhl38	-0.55	1.32	1.5	enough cells to score
9	Ubfd1		1.6	1.28	fewer than 50 cells per well; well left out of scoring
10	Tmem144	0.71	1.42	1.6	enough cells to score
11	Pogz		1.27	1.26	fewer than 50 cells per well; well left out of scoring
12	Rcl1	1.6	1.74	1.31	enough cells to score
13	Tbce	0.07	1.55	1.5	enough cells to score
14	Cryzl1	-0.01	1.55	1.31	enough cells to score
15	Or51m1	0.14	1.43	1.31	enough cells to score
16	Gal3st1	-0.99	1.17	1.37	enough cells to score
17	Snapc2	-0.05	1.49	1.6	enough cells to score
18	Bpifa2	0.04	1.38	1.17	enough cells to score
19	Hnrnpd		1.18	1.11	fewer than 50 cells per well; well left out of scoring
20	Zfp143	-0.01	1.6	1.42	enough cells to score
21	Bcl2l1	0.59	1.68	1.72	enough cells to score
22	Alox5ap	0.61	1.7	1.77	enough cells to score
23	Cast	-0.47	1.56	1.42	enough cells to score
24	Sap30	3.02	2	1.89	enough cells to score
25	Ppox	-0.22	1.46	1.39	enough cells to score
26	Plekha8		1.3	1.46	fewer than 50 cells per well; well left out of scoring
27	Ppp2cb	2.04	1.73	1.63	enough cells to score
28	Cilp	-0.04	1.65	1.71	enough cells to score
29	Xylt2	-0.01	1.41	1.25	enough cells to score
30	Tpra1	0.14	1.44	1.61	enough cells to score
31	Rexo1		1.27	1.27	fewer than 50 cells per well; well left out of scoring
32	Or10u3		1.27	1.17	fewer than 50 cells per well; well left out of scoring
33	Cts6	-1.44	1.34	1.57	enough cells to score
34	Selenom	0.26	1.41	1.31	enough cells to score
35	Cstf2	-0.23	1.56	1.73	enough cells to score
36	Aifm1	0.49	1.51	1.48	enough cells to score
37	Nipal2	0.72	1.51	1.66	enough cells to score
38	Oaz3	1.38	1.6	1.62	enough cells to score
39	1700018F24Rik		1.4	0.98	fewer than 50 cells per well; well left out of scoring
40	Ebf3		1.22	1.23	fewer than 50 cells per well; well left out of scoring
41	Pkd1	1.97	1.59	1.83	enough cells to score
42	Ahi1	-0.54	1.51	1.61	enough cells to score
43	Serpinb1c	-1.69 (active)	1.18	1.12	enough cells to score
44	Scrg1		1.27	1.13	fewer than 50 cells per well; well left out of scoring
45	Arl6ip4	-1.16	1.52	1.37	enough cells to score
46	Xkr6	0.24	1.63	1.87	enough cells to score
47	Npffr2	-0.74	1.42	1.45	enough cells to score
48	Fbp1	1.15	1.64	1.59	enough cells to score
49	Ckmt1	-0.09	1.68	1.37	enough cells to score
50	Pgm2l1	-0.72	1.29	1.2	enough cells to score
51	Rdh1	-1.59 (active)	1.17	1.07	enough cells to score
52	Nrdc	-0.04	1.68	1.55	enough cells to score
53	Zfp59		1.42	1.24	fewer than 50 cells per well; well left out of scoring
54	Fkbp3	0.69	1.45	1.53	enough cells to score
55	LOC269472 (retired record)	0.91	1.74	1.97	enough cells to score
56	Aebp1	-0.41	1.56	1.61	enough cells to score
57	Jmy	-0.33	1.46	1.43	enough cells to score
58	Coro7	1.61	1.72	1.71	enough cells to score
59	Ybx1	0.19	1.53	1.39	enough cells to score
